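Plate-reader measure of the Venus reporter marking one vaccinia stage in infected cells (the cell line is not named here); read time unknown. The test concentration is not given here. Percent change in Venus reporter signal; lower (more negative) values mean stronger inhibition of that viral stage.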

Values are in %. The controls that fix the scale are not given here. Common to all entries: measured here: Venus reporter, other viral stage. Part of the compounds only, not a random draw; the main read-out is not listed here.

{"compound": "C[C@@H]1CN([C@@H](C)CO)C(=O)Cc2cc(NC(=O)Cc3ccccc3)ccc2O[C@@H]1CN(C)S(=O)(=O)c1ccc(Cl)cc1", "activity change (Venus) (%)": "-37.33"}
{"compound": "O=C(Cc1ccccn1)N1CC(=O)N2[C@H](C1)[C@@H](c1ccc(C#CC3CCCCC3)cc1)[C@@H]2CO", "activity change (Venus) (%)": "-38.43"}
{"compound": "C[C@@H]1CN([C@H](C)CO)C(=O)c2cc(/C=C/c3ccccc3)cnc2O[C@H]1CN(C)Cc1ccccc1", "activity change (Venus) (%)": "-46.52"}
{"compound": "CO[C@H]1CN(C)C(=O)c2cc(NS(=O)(=O)c3ccc(-c4ccccc4)cc3)ccc2OC[C@H](C)NC[C@@H]1C", "activity change (Venus) (%)": "-21.44"}
{"compound": "Cc1ccc(S(=O)(=O)Nc2ccc3c(c2)C(=O)N([C@@H](C)CO)C[C@@H](C)[C@@H](CN(C)Cc2ccc4c(c2)OCO4)OCCCC[C@H](C)O3)cc1", "activity change (Venus) (%)": "-67.98"}
{"compound": "COc1cccc(-c2ccc(C3[C@@H]4CN(Cc5cccc(F)c5)C[C@H]3N4)cc2)c1", "stereo": "some centres undefined", "activity change (Venus) (%)": "-50.81"}
{"compound": "O=S(=O)(N[C@H]1CC[C@H](CCNS(=O)(=O)c2ccccc2Cl)O[C@@H]1CO)c1ccccc1", "activity change (Venus) (%)": "-42.67"}
{"compound": "C[C@@H]1CN([C@H](C)CO)S(=O)(=O)c2ccc(C#C[C@@H](C)O)cc2O[C@@H]1CN(C)Cc1ccc(-c2ccccc2)cc1", "activity change (Venus) (%)": "-34.81"}
{"compound": "C[C@@H]1CN([C@H](C)CO)C(=O)c2cc(NS(=O)(=O)c3ccccc3)ccc2O[C@@H]1CN(C)Cc1ccc(Oc2ccccc2)cc1", "activity change (Venus) (%)": "-49.17"}
{"compound": "C[C@@H]1CCCCO[C@H](CN(C)Cc2ccc(Cl)c(Cl)c2)[C@@H](C)CN([C@@H](C)CO)C(=O)c2cc(NC(=O)c3ccccc3)ccc2O1", "activity change (Venus) (%)": "-56.44"}
{"compound": "O=C(C1CCCC1)N1CC[C@@H]2[C@H](CO)Nc3ccc(-c4cccc(F)c4)cc3[C@@H]21", "activity change (Venus) (%)": "-29.89"}
{"compound": "Cc1ccc(S(=O)(=O)Nc2ccc3c(c2)C(=O)N([C@H](C)CO)C[C@@H](C)[C@@H](CN(C)S(=O)(=O)c2c(C)noc2C)OCCCC[C@H](C)O3)cc1", "activity change (Venus) (%)": "-28.01"}
{"compound": "C[C@H](CO)N1C[C@H](C)[C@@H](CN(C)C(=O)Nc2ccc(F)cc2)OCc2ccccc2-c2c(n(C)c3ccccc23)C1=O", "activity change (Venus) (%)": "-49.2"}
{"compound": "CC(C)NC(=O)Nc1ccc2c(c1)C(=O)N([C@@H](C)CO)C[C@H](C)[C@H](CN(C)Cc1ccc(C(F)(F)F)cc1)OCCCC[C@H](C)O2", "activity change (Venus) (%)": "-50.29"}
{"compound": "C[C@@H]1CN([C@H](C)CO)C(=O)c2cc(NC(=O)Cc3ccccc3)ccc2O[C@H]1CN(C)Cc1ccc(Cl)c(Cl)c1", "activity change (Venus) (%)": "-60.36"}
{"compound": "C[C@@H]1CN([C@H](C)CO)S(=O)(=O)c2ccc(C#Cc3cccc(F)c3)cc2O[C@@H]1CN(C)CC1CC1", "activity change (Venus) (%)": "-62.89"}
{"compound": "Cc1ccc(S(=O)(=O)N(C)C[C@@H]2Oc3ccc(NC(=O)Nc4ccccc4)cc3C(=O)N([C@@H](C)CO)C[C@@H]2C)cc1", "activity change (Venus) (%)": "-35.16"}
{"compound": "CC1(CCO)CC(C)(CCc2ccccc2)OO1", "stereo": "centres undefined", "activity change (Venus) (%)": "-3.188"}

Repeated from the top, 2 entries:

Compound,activity change (Venus) (%)
C[C@@H]1CN([C@@H](C)CO)C(=O)Cc2cc(NC(=O)Cc3ccccc3)ccc2O[C@@H]1CN(C)S(=O)(=O)c1ccc(Cl)cc1,-37.33
O=C(Cc1ccccn1)N1CC(=O)N2[C@H](C1)[C@@H](c1ccc(C#CC3CCCCC3)cc1)[C@@H]2CO,-38.43

Data taken from PubChem BioAssay AID1053133, deposited by Broad Institute (2014).